Source: patent publication US20110306775A1, “SYNTHESIS AND BIOLOGICAL EVALUATION OF 2',5'-DIMETHOXYCHALCONE DERIVATIVES AS MICROTUBULE-TARGETED ANTICANCER AGENTS” (KAOHSIUNG MEDICAL UNIVERSITY, priority 2010, published 2011)
At least one compound was matched to its structure with a doubt left.

System: PC3 cells
Test: Cell cycle analysis (propidium iodide, flow cytometer), PC3 cells
Type: cell-based, human
Details: vs control, FIG. 3
Protocol: DNA content was determined following propidium iodide (PI) staining of cells. Briefly, 6×10^5 cells were plated and treated with 20 μM cisplatin and various concentrations of compounds 11 and 15 for 24 hours, respectively. These cells were harvested by trypsinization, washed with 1×PBS, and fixed in ice-cold MeOH at −20° C. After overnight incubation, the cells were washed with PBS and incubated with 50 μg/mL propidium iodide and 50 μg/mL RNase A in PBS at room temperature for 30 minutes. The fractions of cells in each phase of cell cycle were analyzed using flow cytometer.

Compound: COc1ccc(OC)c(C(=O)C=Cc2ccc(C(=O)N3CCCC3)cc2)c1 [Compound 15, 4-tetrahydropyrrolylcarbamoyl-2′,5′-dimethoxychalcone]
- cell cycle phase arrest (PC3, 0.3 μM): G2/M
- cell cycle phase arrest (PC3, 1 μM): G1
